{
  "source": "patent US11013249B2",
  "about": "“Compositions for controlled release of volatile compounds” (University of Guelph, priority 2016, dated 2021)",
  "tested_on": "mung bean sprouts",
  "experiment": "Mung bean sprouts sealed in 1 L glass jars with antimicrobial compounds at 4° C.",
  "set-up": "species or system Mung bean (Vigna radiata)",
  "details": "low concentration: AITC <1.5 mg/L, diacetyl <8 mg/L",
  "data": [
    {"smiles": "C=CCN=C=S", "note": "[AITC, Allyl isothiocyanate]", "values": [
      {"measurement": "respiration rates of the sprouts", "result": "higher than the untreated control"}
    ]}
  ]
}
